Consider 103 sequences from PubChem BioAssay AID1347423 (Functional Genomics Laboratory (NCATS/FGL), 2020).

Screen size: about 52,000 sequences; about 210 (0.4%) were called active.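 The calls were made as follows: active = gene whose silencing raises cell survival under the drug, median off-target-corrected z-score across its silencing RNAs 2 or more; inactive = the rest.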 Some of the results follow.

This assay is described as follows: Resistance to Poly (ADP-Ribose) Polymerase inhibitor: Gene Identification via Genome-wide siRNA Screen. The note with it: mouse BRCA2 R2336H ES cells, olaparib, CellTiter-Glo viability; hits give high values. Summed up: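 Mouse BRCA2 R2336H ES cells were reverse-transfected with siRNA (20 nM final), treated at 48 h with 500 nM olaparib, and read by CellTiter-Glo after 72 h. Scores: MAD-based z per siRNA, median per gene, seed off-target correction.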
As for GCAACUUGUCAGAUGUUUCTT against Trpm7, the z-score was inactive: -0.603. Then GGACUUUUCAUUUGAAGCATT against Nola1, with inactive: -2.5. Regarding “ACUUCUGGCUCCGUUAAGGTT against 2410039E07Rik”, the z-score was inactive: 0.125. Consider GGAGCACUUAGAUGACUAUTT against Skil, for which the z-score is inactive: -0.961. As to “GGAAAAACCAAAUUUACCATT against 1810003N24Rik”, the z-score was inactive: 0.0612.

For the sequence GCCAUUAUUGGAGCUGGCATT against Olfr105, the z-score was inactive: -1.38. Then GGUGAGAAUGUGCUUCAAUTT against Egr2, with inactive: -0.181; and GGACAUGUACACCUUUGAUTT against BC027073, with inactive: -0.905.

For the sequence CCUUCAUUAACAGACUACUTT against Miz1, the z-score was inactive: -0.949. With GGACUUCCAGAUCCAACCUTT against Robo4, the z-score was inactive: -0.311. Then “GGUGUUUGAAAAGAAGAACTT against 1110063G11Rik”, with inactive: -0.602; and “GCGGUUAACAGGCAUGCGATT against 4921531G14Rik”, with inactive: 0.564; and GGGCUCUUUUUCUAGGAAATT against AW121567, with inactive: 1.75. With “GGGAGAGGCCUUUUGAAUGTT against 2610029D06Rik” the figure was inactive: -1.2; with GGAAGAUCUGUACUACGGGTT against Bsnd, inactive: -0.981; with “GGGUUUCCUACAGAGUACCTT against 9430069J07Rik”, inactive: 1.42. As for GGUGGAUGUCUUCUUCAACTT against Gata2, the z-score was inactive: -0.486. Then “GGAGGAAAUCAGAGAGAGGTT against D330024H06Rik”, with inactive: -1.56; and GCAAGUGCUCCAAUCUUGCTT against Ccl5, with inactive: 1.34. Take CUCUAUCUCAUUGCAGUCCTT against Olfr671: the z-score was inactive: 0.574. As for CGUGUUUCAGGUUUCUAUUTT against MGC59240, the z-score is inactive: -0.646. On to “GCAGUCUUCUUAGCUAUAATT against 9430065N20Rik”, for which the z-score was inactive: -1.92. As for CCAUGGAAUCUCCUAUACCTT against C4bp, the z-score was inactive: 0.044. With GCACUUAACAGAAUGAAUUTT against Alg2 the figure was inactive: 0.163. Consider “GCGGAUAUGAAGGACAUGCTT against 4933433P14Rik”, for which the z-score was inactive: 0.287. Then GGAGAAAUGUUGUUGUCUUTT against Kcng3, with inactive: -0.837; and “GGCAUUGAUCACUGACAGCTT against 9530077C05Rik”, with inactive: 0.686. As to CGUUUUACCACCGUGUGCUTT against Gfra1, the z-score is inactive: 0.4. Then GGCUUGACUCCAAGACUGUTT against Mtch2, with inactive: -0.0367; and CGAGUGUUAGAUGCUAAAATT against Lamc2, with inactive: 0.221; and CCGAAUGAUCACUCAAACUTT against Rbms1, with inactive: 2.36. On to GGCACUGUUCUCAUCUGUGTT against Olfr736, for which the z-score is inactive: -0.252. With “GGCAAAGCAACUUUAUGAATT against 1100001A21Rik” the figure was inactive: -0.499; with GGCCUGCACGAAUGAGUUUTT against Ube3a, inactive: 1.26; with “GGAUCAAGGAGGAUUUCAATT against 5430420C16Rik”, inactive: -1.36. Consider GCUAGUGCUUAUUACGAUUTT against Fut4, for which the z-score is inactive: -0.0897. With CCAUCUUGGGUUCUGGUCATT against BC057627 the figure was active: -0.312.

GGAACAUGGCACUUUCGUGTT against Pcdh10: the z-score was inactive: 0.756. Then CGGGCAUAAAGGUUACAUATT against Hspa4, with inactive: 0.203; and “GGAGUUUAUAACACAUAGGTT against 5930437A14Rik”, with inactive: 1.27.

Regarding GCGUGAGAUACCAUAUUAUTT against Bank1, the z-score is inactive: -0.779. Turning to GGUAUCAAAACAACAGUCCTT against Upk1b, the z-score was inactive: 0.127. For GGACAAUUCUAUCAAGUGGTT against Fcrl3, the z-score is inactive: 0.602. With “GGAGAAAAGUACCAAGAUGTT against 1810023F06Rik” the figure was inactive: 2.44.

Take GGAGCUGUUUAUGUACUUUTT against BC034753: the z-score is inactive: -0.33.

Turning to “CCAGAUGUUACGAAUGAAATT against 2700094F01Rik”, the z-score is inactive: -1.65. With “GGCACACACAAAGUAUUUCTT against 1300014I06Rik” the figure was inactive: -0.147; with GGUACUUACAGGUUGUCAUTT against Mageb1, inactive: 0.191.

With GGAAGGCAAAUCAAAAUCCTT against Zfp609, the z-score was inactive: 0.914. In the case of GGCGUAUUUUCCAACAGAGTT against Nxf3, the z-score is inactive: -0.581. Then CCUGAACACAAGUGCUGGUTT against Dcir2, with inactive: 1.65; and “GGUUAAAAACAACUGAAAGTT against 9630028B13Rik”, with inactive: -0.0837; and GGUGUACUUUUUCCUAUUUTT against Olfr352, with inactive: -1.62. With GCUAGAACAGCAAAAAAAATT against Scgb3a1 the figure was inactive: 0.00969. With CCUUCAACACCACGAAUCUTT against Npdc1 the figure was inactive: 0.838; with “GGCGUGCGAUAACACGCAATT against 2810046C01Rik”, inactive: 0.361; with GGUCAAGUAUCAUUUUUGCTT against Negr1, inactive: 0.268. For the sequence GGUGAUCACUAACCUACUATT against AI427100, the z-score was inactive: -0.505. Then GGCAAGAAACAGUCAUAAGTT against Eps8l3, with inactive: -0.888. Then CCUUACACUAAGAAAAAGGTT against Rad50, with inactive: -0.367; and “GGGAAUCAUGAUAUGUUUCTT against 4432406C05Rik”, with inactive: 1.12.

Take CCAGAUCCCAUAGCAACCATT against Bpnt1: the z-score is inactive: -0.21. With “GCUUAAAACAGACCAUUUUTT against 1700013G20Rik” the figure was inactive: 0.824. As for GGGCAAUUGCUAUAUCUUATT against Cldn2, the z-score is inactive: -0.637. With GCUACAAGAAAUCUUGAUGTT against Tm4sf8 the figure was inactive: -0.0884; with GGAAGCGGGAGAUAGAGGATT against Xpo6, inactive: 0.538; with “GCUGGUACUGACGAAAUGGTT against 6330442E02Rik”, inactive: -0.46.

On to “GCGUGUAAGGUCUUCAUCUTT against C130037N17Rik”, for which the z-score was inactive: 2.85. Take “GGCUGCAUCCAAAACAGAATT against 2810457I06Rik”: the z-score is inactive: 0.756. As for GGAUUAAAUCCGAAAAGCUTT against BC003277, the z-score is inactive: -0.766. Then “CGACGCAUUGAGGCAAUCUTT against 2310057J16Rik”, with inactive: 0.982; and CCGAUAAGUAUUAUGGUGCTT against Fh1, with inactive: -0.566. With “GGAACUUAUGGACAGUUCATT against A930016D02Rik” the figure was inactive: -0.345. With GGGCACAAUUCAAAACUUATT against Pgm1 the figure was inactive: 0.0163; with GGAUAGGAUGUAAAGAUCATT against Atp6v0c, inactive: -1.07. As to GGAUCAUCUCCUCCAUUCUTT against Olfr393, the z-score was inactive: -0.521.

Consider GGGUGUUGAAAGACUUUUATT against Tnks, for which the z-score is inactive: 0.127. Turning to CCAAUCUCCAGUUCAACAATT against Adprtl2, the z-score was inactive: -0.0253.

On to GGUAGAGGACCGCUUCUAUTT against Spa17, for which the z-score is inactive: -1.4. Then GGAGAGCAGACAAAAAUGATT against Efcbp1, with inactive: 0.688; and GGGUACACAAGAUGGACUGTT against Jun, with inactive: -1.55. With GGGUGUGAGGGAUUUCAUCTT against Ndufa2 the figure was inactive: -0.979. As to GGCAUUCGAGGAGACUCAUTT against AI415282, the z-score is inactive: -1.13. Then “GGUCUCACUGCUAAUAAAGTT against D730039F16Rik”, with inactive: -0.353; and CCGCCAAGAUUCUGAACAUTT against Ifitm6, with inactive: -1.05; and CCUACGAGUUUUGCAUUUATT against Mcart1, with inactive: -1.83. As to “CCUCCAGUUACGAUGGAGATT against 4930434E21Rik”, the z-score is inactive: -1.5.

As for “GGAUGAGAAGGAGAAAUACTT against 4933405K18Rik”, the z-score is inactive: -0.45. Take GGUUUUAUGAGAAUAGAACTT against Zdhhc21: the z-score is inactive: -0.91. Then GGGUCUGUGGGACAUUAUGTT against Tde2l, with inactive: -0.602. Consider GGUUUUCCAUCUCCUCCAGTT against Klrc1, for which the z-score is inactive: 0.461. With GCUAAGAGAGAACAUUGAGTT against Ppil5 the figure was inactive: -1.14. With “CCAGCUUCAAGGAACAUGGTT against 1700008G05Rik”, the z-score is inactive: -0.0217. Take GGAAGACCAUUGUUGUUAATT against Has2: the z-score is inactive: 2.1. In the case of CCAGCAUUGAUAGACAGAUTT against AI429612, the z-score is inactive: -0.564. For the sequence GGAUGCAGUAGAAAUGCUGTT against Ank, the z-score is inactive: 2.43. In the case of GUGGAUACGUGGGAAAGUCTT against Nmnat1, the z-score is inactive: -0.246. Take GGAAACUGUCACAGAUUUUTT against Rgl3: the z-score is inactive: -0.467. CCCUGGUAAACACCAAUAGTT against Catna1: the z-score was inactive: 0.576. With GGGAUGAAUACACUUGUUGTT against Cox5a the figure was inactive: 1.38; with GGAACAUGUCUCCUGAUCUTT against Add3, inactive: 0.481. Then GGAUUCAGAAAUCUGGAAATT against Nmnat3, with inactive: 0.418.

For GGACUUGCAUACCUUGAUCTT against Dcn, the z-score is inactive: -0.948.
